For the data set, the system named is BEL-7404 cells. Description: Uptake and distribution of Pt in BEL-7404 cells (ICP-MS). Format: cell-based, human. The settings on record: BEL-7404, 10 μM, 8.0 h.

As for cis-[PtCl2(R-(+)-FOA)] [complex 5], the “distribution of Pt in cellular fractions” value was “mainly accumulated in cytoplasmic proteins and other cellular fractions”.
As to cis-[PtCl2(S-(–)-FOA)] [complex 6], the “Pt concentration in treated cells, times higher than cisplatin group” value came out at 2.5 times; the “Pt concentration in treated cells, times higher than complex 4 group” value is recorded as 1.7 times; the “Pt concentration in treated cells, times higher than complex 5 group” value turned out to be 2.3 times; the “distribution of Pt in cellular fractions” value is “highly accumulated in nuclear fraction”.
On to cis-[PtCl2(R/S-(±)-FOA)] [complex 4], for which the “distribution of Pt in cellular fractions” value is “mainly accumulated in cytoplasmic proteins and other cellular fractions”.

The record behind these values is article PMC5617480 (Oncotarget, 2017).
